Laboratory results: US20230220048A1
Results are given in words; binding and its absence hold for the method and conditions named. Some entries that bind do so weakly or less than the wild type.

Chains of the proteins cited; added tags and fusions are not shown. Lines headed by an entry give the natural chain unless they say otherwise; changes in a name come on top.
UniProt P43406: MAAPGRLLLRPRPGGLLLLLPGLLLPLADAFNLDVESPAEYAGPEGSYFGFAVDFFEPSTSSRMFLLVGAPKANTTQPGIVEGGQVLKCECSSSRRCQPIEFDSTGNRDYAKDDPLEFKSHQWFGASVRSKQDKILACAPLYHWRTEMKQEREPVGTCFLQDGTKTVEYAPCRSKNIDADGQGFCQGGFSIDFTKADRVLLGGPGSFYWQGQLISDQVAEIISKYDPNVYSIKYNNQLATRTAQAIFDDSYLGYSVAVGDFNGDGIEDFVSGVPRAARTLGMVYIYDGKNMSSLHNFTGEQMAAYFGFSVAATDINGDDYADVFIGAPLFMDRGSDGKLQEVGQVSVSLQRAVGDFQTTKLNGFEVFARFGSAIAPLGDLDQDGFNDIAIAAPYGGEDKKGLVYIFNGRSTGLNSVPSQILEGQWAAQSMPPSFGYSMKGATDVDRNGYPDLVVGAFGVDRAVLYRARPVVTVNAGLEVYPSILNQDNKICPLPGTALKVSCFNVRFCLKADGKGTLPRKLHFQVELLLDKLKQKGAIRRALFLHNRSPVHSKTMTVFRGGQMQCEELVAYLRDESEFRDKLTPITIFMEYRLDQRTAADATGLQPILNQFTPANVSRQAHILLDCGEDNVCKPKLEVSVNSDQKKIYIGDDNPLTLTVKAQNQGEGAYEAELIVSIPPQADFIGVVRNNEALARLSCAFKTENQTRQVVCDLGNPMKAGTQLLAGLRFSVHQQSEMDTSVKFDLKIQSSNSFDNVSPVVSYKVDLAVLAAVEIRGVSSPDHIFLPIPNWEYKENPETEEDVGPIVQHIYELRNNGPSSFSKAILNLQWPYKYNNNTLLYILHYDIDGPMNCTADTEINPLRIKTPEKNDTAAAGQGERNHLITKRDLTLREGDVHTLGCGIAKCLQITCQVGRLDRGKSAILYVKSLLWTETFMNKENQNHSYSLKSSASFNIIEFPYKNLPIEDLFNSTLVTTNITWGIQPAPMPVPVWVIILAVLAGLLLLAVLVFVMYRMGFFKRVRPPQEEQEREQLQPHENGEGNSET

Tests used:
[1] = target: αvβ3 integrin on BW5147.G.1.4 lymphoma cells (ATCC-TIB-48) (UniProt P43406); assay: adhesion of BW5147.G.1.4 cells to plate-immobilised protein
[2] = target: αvβ3 integrin on BW5147.G.1.4 lymphoma cells (ATCC-TIB-48) (UniProt P43406); assay: adhesion of BW5147.G.1.4 cells to plate-immobilised protein (legend of FIG. 5)

binding [1]: binds
binding [2]: binds
B1: wtMFG-E8 (human wild-type MFG-E8; SEQ ID NO: 1) (ligand)
chain: LDICSKNPCHNGGLCEEISQEVRGDVFPSYTCTCLKGYAGNHCETKCVEPLGLENGNIANSQIAASSVRVTFLGLQHWVPELARLNRAGMVNAWTPSSNDDNPWIQVNLLRRMWVTGVVTQGASRLASHEYLKAFKVAYSLNGHEFDFIHDVNKKHKEFVGNWNKNAVHVNLFETPVEAQYVRLYPTSCHTACTLRFELLGCELNGCANPLGLKNNSIPDKQITASSSYKTWGLHLFSWNPSYARLDKQGNFNAWVAGSYGNDQWLQVDLGSSKEVTGIITQGARNFGSVQFVASYKVAYSNDSANWTEYQDPRTGSSKIFPGNWDNHSHKKNLFETPILARYVRILPVAWHNRIALRLELLGC
